Molecules are shown by their SMILES. This is a selection; strong and weak results do not stand in their true shares. Inconclusive results are not listed. The source made the active and inactive calls. Calls follow the shape of the dose curve; as a rule, active = well fitted inhibition curve with a large enough effect; inconclusive = small, poorly fitted or top-dose-only effect; inactive = flat fitted curve, though single readings scatter.
Potency is read from the fitted curve at half-maximal effect.

Sequences of proteins named here, by UniProt entry; tags and fusion partners are left off.
UniProt P08659, whole entry, looked up: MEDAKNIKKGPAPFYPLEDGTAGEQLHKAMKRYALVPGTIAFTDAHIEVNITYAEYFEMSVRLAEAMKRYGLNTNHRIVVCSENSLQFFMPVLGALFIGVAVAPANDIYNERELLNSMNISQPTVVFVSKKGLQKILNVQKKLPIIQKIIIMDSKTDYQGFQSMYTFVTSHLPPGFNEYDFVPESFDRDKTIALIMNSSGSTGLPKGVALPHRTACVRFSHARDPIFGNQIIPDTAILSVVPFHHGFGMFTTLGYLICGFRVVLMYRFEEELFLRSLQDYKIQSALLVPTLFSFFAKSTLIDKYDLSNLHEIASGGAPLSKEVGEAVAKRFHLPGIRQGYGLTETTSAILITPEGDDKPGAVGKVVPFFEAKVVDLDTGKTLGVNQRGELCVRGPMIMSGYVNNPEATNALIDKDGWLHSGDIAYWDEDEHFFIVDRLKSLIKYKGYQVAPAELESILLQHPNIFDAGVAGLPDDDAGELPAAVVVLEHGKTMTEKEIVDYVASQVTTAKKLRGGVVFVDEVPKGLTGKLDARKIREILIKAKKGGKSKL

The target in this assay is Luciferin 4-monooxygenase (Photinus pyralis) (UniProt P08659). Kind of assay: qHTS profiling assay for firefly luciferase inhibitor/activator using purifed enzyme and Km concentrations of substrates (counterscreen for miR-21 project). Also: nearly all actives have a fitted effect of over 55% in size. As to conditions: purified FLuc, luminescence inhibition. An excerpt: MLPCN Grant: 1 R21 NS059478-01 (miR-21 grant) Assay Provider: NCGC NCGC Assay Overview: Firefly (Photinus pyralis) luciferase is one of the most commonly used transcriptional reporters for a number of reasons. It is considered one of the more dynamically responsive reporters -that is, responsive to changes in reporter transcription - as it requires no post-translational modifications and is enzymatically active directly after protein synthesis (Wood, 1998). Additionally, the half-life of the luciferase protein is short relative to other reporter-gene products (Wood, 1995). […] Although light produced in a bioluminescence reaction is of lower intensity than that produced during fluorescence emission, this is offset by little to no background light inherent to luminescent assays. […] Accumulated intracellular FLuc protein can be measured as an increase in luminescence signal, upon addition of detection reagents (which contain high concentrations of FLuc substrates) commonly used in high-throughput screening. In cell-based reporter gene assays that use FLuc as the reporter gene to quantitate the potential influence of a given compound against the target biology, this apparent increase in luminescence can mistakenly be interpreted as identification of a compound that is active against the target of interest. […]
As for `Cc1ccc(-c2onc3ccc(C(=O)O)cc23)cc1`, the Potency was active: 2.39 µM.

These data come from PubChem BioAssay AID588342 (National Center for Advancing Translational Sciences (NCATS), 2011).
